Measured values taken from publication PMC11809377.
No constants are given. Whether binding was seen depends on the method and setting. In cells and extracts the contact can be indirect. Here binding means that the protein was enriched with, or labelled near, the bait; the list need not be complete. Where a sequence is shown, tags or fusion partners need not be part of it.

Biological target: T1, Hemagglutinin (HA)‐tagged TTK protein kinase (UniProt P35761)
T1 sequence: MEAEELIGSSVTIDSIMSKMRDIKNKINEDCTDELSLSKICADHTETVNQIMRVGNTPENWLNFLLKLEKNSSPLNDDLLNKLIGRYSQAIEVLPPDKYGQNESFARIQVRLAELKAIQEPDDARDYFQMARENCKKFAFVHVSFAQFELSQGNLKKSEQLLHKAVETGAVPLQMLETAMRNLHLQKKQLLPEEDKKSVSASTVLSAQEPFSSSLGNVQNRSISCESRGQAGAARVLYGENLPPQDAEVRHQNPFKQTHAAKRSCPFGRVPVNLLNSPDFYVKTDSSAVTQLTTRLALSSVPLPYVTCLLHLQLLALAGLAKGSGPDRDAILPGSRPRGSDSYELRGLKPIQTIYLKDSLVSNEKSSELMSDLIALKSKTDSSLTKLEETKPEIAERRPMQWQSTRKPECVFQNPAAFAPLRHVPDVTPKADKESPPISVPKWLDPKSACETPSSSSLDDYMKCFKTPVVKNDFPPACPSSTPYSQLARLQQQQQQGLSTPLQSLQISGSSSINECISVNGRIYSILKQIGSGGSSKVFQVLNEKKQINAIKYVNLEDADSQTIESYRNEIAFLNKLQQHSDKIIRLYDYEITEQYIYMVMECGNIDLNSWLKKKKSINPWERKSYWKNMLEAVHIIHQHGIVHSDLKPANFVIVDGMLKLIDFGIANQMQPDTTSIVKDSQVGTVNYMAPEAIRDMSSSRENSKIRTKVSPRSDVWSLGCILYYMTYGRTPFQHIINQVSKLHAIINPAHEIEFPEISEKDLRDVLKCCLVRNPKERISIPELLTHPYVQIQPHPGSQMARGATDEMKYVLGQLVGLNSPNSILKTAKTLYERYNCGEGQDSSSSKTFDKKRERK
Assay: affinity purification with mass spectrometry; lysates of VSMCs transfected with HA‐tagged TTK constructs, immunoprecipitated with anti‐HA antibodies, SDS‐PAGE, trypsin digestion, LC‐MS/MS

B1: p120‐catenin (protein, UniProt P30999 1-938)
chain: MDDSEVESTASILASVKEQEAQFEKLTRALEEERRHVSAQLERVRVSPQDANSLMANGTLTRRHQNGRFVGDADLERQKFSDLKLNGPQDHNHLLYSTIPRMQEPGQIVETYTEEDPEGAMSVVSVETTDDGTTRRTETTVKKVVKTMTTRTVQPVPMGPDGLPVDASAVSNNYIQTLGRDFRKNGNGGPGPYVGQAGTATLPRNFHYPPDGYGRHYEDGYPGGSDNYGSLSRVTRIEERYRPSMEGYRAPSRQDVYGPQPQVRVGGSSVDLHRFHPEPYGLEDDQRSMGYDDLDYGMMSDYGTARRTGTPSDPRRRLRSYEDMIGEEVPPDQYYWAPLAQHERGSLASLDSLRKGMPPPSNWRQPELPEVIAMLGFRLDAVKSNAAAYLQHLCYRNDKVKTDVRKLKGIPILVGLLDHPKKEVHLGACGALKNISFGRDQDNKIAIKNCDGVPALVRLLRKARDMDLTEVITGTLWNLSSHDSIKMEIVDHALHALTDEVIIPHSGWEREPNEDCKPRHIEWESVLTNTAGCLRNVSSERSEARRKLRECDGLVDALIFIVQAEIGQKDSDSKLVENCVCLLRNLSYQVHREIPQAERYQEALPTVANSTGPHAASCFGAKKGKDEWFSRGKKPTEDPANDTVDFPKRTSPARGYELLFQPEVVRIYISLLKESKTPAILEASAGAIQNLCAGRWTYGRYIRSALRQEKALSAIAELLTSEHERVVKAASGALRNLAVDARNKELIGKHAIPNLVKNLPGGQQNSSWNFSEDTVVSILNTINEVIAENLEAAKKLRETQGIEKLVLINKSGNRSEKEVRAAALVLQTIWGYKELRKPLEKEGWKKSDFQVNLNNASRSQSSHSYDDSTLPLIDRNQKSDKKPDREEIPMSNMGSNTKSLDNNYSTLNERGDHNRTLDRSGDLGDMEPLKGAPLMQKI
- binding: binds
